Data published in article doi:10.1101/2021.09.06.459189.

Amino acid sequences for entries named in this document (tags omitted).
UniProt P29311: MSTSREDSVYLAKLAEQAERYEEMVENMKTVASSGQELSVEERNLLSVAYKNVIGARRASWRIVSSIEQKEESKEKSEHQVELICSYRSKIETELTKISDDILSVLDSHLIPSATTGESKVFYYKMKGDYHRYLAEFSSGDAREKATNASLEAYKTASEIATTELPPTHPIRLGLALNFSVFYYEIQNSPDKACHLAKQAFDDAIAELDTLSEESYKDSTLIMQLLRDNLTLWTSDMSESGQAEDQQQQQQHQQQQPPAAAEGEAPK

Molecular target: Bmh1-GFP (S. cerevisiae) (UniProt P29311)
Test: affinity purification with mass spectrometry

binding: binds
B1: Pes4 (protein, UniProt P39684 1-611)
chain: MYSISNKKPSILSMVPLNILKNQDLKVKKDQEKKISFNPVVTPIRPDDYHEKTSRSSSSSHSDSPEFLRINNNKSGHKNGKLKSFESKKLVPLFIGDLHETVTEETLKGIFKKYPSFVSAKVCLDSVTKKSLGHGYLNFEDKEEAEKAMEELNYTKVNGKEIRIMPSLRNTTFRKNFGTNVFFSNLPLNNPLLTTRVFYDTFSRYGKILSCKLDSRKDIGFVYFEDEKTARNVIKMYNNTSFFGKKILCGIHFDKEVRSVPNFETQKSRLDAETIIEKEQSLNEKHSKGNDKESKNIYSSSQNSIFIKNLPTITTRDDILNFFSEVGPIKSIYLSNATKVKYLWAFVTYKNSSDSEKAIKRYNNFYFRGKKLLVTRAQDKEERAKFIESQKISTLFLENLSAVCNKEFLKYLCHQENIRPFKIQIDGYDENSSTYSGFIKFRNFEDATRIFNFLNNRLVGGSIVTTSWERQNNAPKYHDGYGMRNIHTSSHPQITPYYQYSHANSLNSPHMRDLSSMNSSTRSLIKNKNFNKKVLETFEKQVRRGIDFMRFPSATRDENVHGIAEYIFDTYWNRDVLILDKFLSLLNSSPYHEGVLQKQIEEAASSLGFKR

These are yes or no findings as the source states them, for the method shown. Binding seen in cells or lysates may run through a third protein. Here binding means that the protein was enriched with, or labelled near, the bait; the list need not be complete.
